# About 22,000 (6.9%) of roughly 320,000 compounds were called active. Inconclusive results, whose numbers are uncertain, are shown with a selection of clear calls. Calls come from the whole dose curve; as a rule, active = well fitted inhibition curve with a large enough effect; inconclusive = small, poorly fitted or top-dose-only effect, or another doubt; inactive = no such curve, though single readings can be large or run the other way. A potency beside an inconclusive call is a rough fit, not a confirmed value.
# Assay: Primary qHTS for delayed death inhibitors of the malarial parasite plastid, 96 hour incubation
# Details: P. falciparum luciferase reporter growth; series mostly up to 28.7 µM; activity change, negative = inhibition: at the top concentration
# Procedure, shortened: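 96 h incubation, 37 C, 5% CO2, of luciferase-reporter P. falciparum-infected RBCs (2% hematocrit, 0.05% parasitemia final) with test compounds; endpoint luminescence.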
# % is set by controls: 0 for no effect and ±100 for the full control effect; potency is the fitted concentration of half-maximal effect.
SMILES,"activity change, negative = inhibition",Potency
CC(C)[C@H](NC(N)=O)C(=O)Nc1ccc(F)c(Cl)c1,inactive: -1.78%,–
O=C(O)COc1ccc(/C=C/C(=O)c2ccc(C3CCCCC3)cc2)cc1,–,"inconclusive: 18.5 µM [inhibitor, single point]"
O=C1CCN(Cc2ccccc2)CCN1[C@H](COc1ccccc1)Cc1ccccc1,–,"inconclusive: 9.28 µM [inhibitor, partial curve, poor fit]"
C=CCOc1c2ccc(C(=O)NC3CCCc4ccccc43)cc2nn1C (stereo not given),–,"inconclusive: 6.57 µM [inhibitor, partial curve, poor fit]"
O=C(NNC(=O)c1cccc(-n2cnnn2)c1)c1ccccc1,–,"inconclusive: 0.0657 µM [inhibitor, full curve, poor fit]"
NC(=O)C1CCN(c2nc(-c3cccc(F)c3)cs2)CC1,inactive: 18%,–
O=C(Cn1cc(C(F)(F)F)cc(Cl)c1=O)NCCc1ccc(Cl)cc1Cl,inactive: 22.2%,–
CCOC(=O)c1cc(-c2ccc(OC)cc2)nn1-c1ccccc1C(=O)O,inactive: 26.4%,–
COCc1ccc(-c2ccc3c(c2)c(C#Cc2ccsc2)c(-c2cc(OC)cc(OC)c2)n3C)cc1,–,"inconclusive: 2.62 µM [inhibitor, partial curve, poor fit]"
CCn1c(SCC(=O)Nc2ccccc2OC)nc(O)cc1=O,inactive: -11.7%,–
O=C(NCCN1CCCC1)c1cc(-c2ccncc2)nc2ccc(S(=O)(=O)N3CCOCC3)cc12,–,"inconclusive: 2.08 µM [inhibitor, full curve, poor fit]"
Cc1cc(Cc2c(O)[nH]c(=S)[nH]c2=O)ccc1OC(C)C,–,"inconclusive: 1.65 µM [inhibitor, full curve, poor fit]"
Nc1ncnc2c1ncn2[C@@H]1O[C@H](COP(=O)(O)O)[C@@H](O)[C@H]1O,–,"inconclusive: 15.1 µM [inhibitor, single point]"
COc1ccc(NC(C)=O)cc1S(=O)(=O)Nc1ccc2c(c1)OCCO2,–,"inconclusive: 9.28 µM [inhibitor, partial curve]"
CN1CCC(C)(O)C2CCCCC21 (stereo not given),–,"inconclusive: 0.104 µM [inhibitor, partial curve, poor fit]"
Cn1cccc1C(=O)OCC(=O)NC1CCS(=O)(=O)C1 (stereo not given),inactive: 18.3%,–
Nc1nc(NCCCN2CCOCC2)nc(Nc2ccc(F)cc2)c1[N+](=O)[O-],–,"inconclusive: 11.7 µM [inhibitor, single point]"
COC(=O)c1ccc(COC(=O)c2c(C)nn(Cc3ccccc3Cl)c2Cl)o1,inactive: -79.4%,–
O=C(CSc1ccc2nnc(-c3cccnc3)n2n1)N1CCc2ccccc21,–,"inconclusive: 9.28 µM [inhibitor, partial curve]"
O=C(NCc1ccccc1)C1CCCN(S(=O)(=O)c2cccc3nonc23)C1 (stereo not given),–,"inconclusive: 13.1 µM [inhibitor, single point]"
COc1ccc(N2C(=O)C3C(c4ccc(C(=O)O)cc4)NC(Cc4ccccc4)(C(=O)O)C3C2=O)c([N+](=O)[O-])c1 (stereo not given),–,active: 2.94 µM
Cc1ccc(NC(=O)CNCc2ccccc2Cl)cc1S(=O)(=O)N(C)C,–,"inconclusive: 18.5 µM [inhibitor, single point]"
Cc1ccc(OCC(=O)N2CCC(Cc3ccccc3)CC2)c([N+](=O)[O-])n1,–,"inconclusive: 18.5 µM [inhibitor, single point]"
COc1cccc(/C=N/NC(=S)NCc2ccco2)c1OC,–,"inconclusive: 18.5 µM [inhibitor, single point]"

# By substructure: those above containing a nitro group on carbon.
SMILES,"activity change, negative = inhibition",Potency
Nc1nc(NCCCN2CCOCC2)nc(Nc2ccc(F)cc2)c1[N+](=O)[O-],–,"inconclusive: 11.7 µM [inhibitor, single point]"
COc1ccc(N2C(=O)C3C(c4ccc(C(=O)O)cc4)NC(Cc4ccccc4)(C(=O)O)C3C2=O)c([N+](=O)[O-])c1 (stereo not given),–,active: 2.94 µM
Cc1ccc(OCC(=O)N2CCC(Cc3ccccc3)CC2)c([N+](=O)[O-])n1,–,"inconclusive: 18.5 µM [inhibitor, single point]"

# Further compounds

SMILES,"activity change, negative = inhibition",Potency
COc1ccc(OC)c(S(=O)(=O)NCCC(C)C)c1,–,"inconclusive: 11.7 µM [inhibitor, single point]"
Cc1ccc(NC(=O)CCCCCNS(=O)(=O)c2ccc(C)cc2)cc1,–,active: 11.7 µM
COc1cc2c(cc1OC)C(C)N(S(=O)(=O)c1ccc(C)cc1)CC2 (stereo not given),–,"inconclusive: 1.31 µM [inhibitor, partial curve, poor fit]"
CCN(CC)c1ccc(/C=N/NC(=O)c2cnccn2)c(O)c1,–,"inconclusive: 7.38 µM [inhibitor, partial curve]"
O=C1CN(C(=O)N[C@@H](Cc2ccccc2)C(=O)N[C@H](C(=O)O)c2ccccc2)c2ccccc2N1,inactive: 15.5%,–
COc1ccc(CNc2nc(NCc3ccc(OC)cc3)n(C(=O)c3ccccc3[N+](=O)[O-])n2)cc1,–,"inconclusive: 20.8 µM [inhibitor, partial curve, poor fit]"
Cc1cc(C(=O)CCl)c(C)n1CCc1ccc(Cl)cc1,–,active: 8.28 µM
CC(=O)C1=C(C)N(Cc2ccccc2)C(=O)N[C@H]1c1ccco1,inactive: 22.6%,–
CC(=O)N1CCn2c3c(c4cc(C)ccc42)CCCC31 (stereo not given),inactive: 2.9%,–
O=C(NCc1ccccc1Cl)C(=O)NCC1OCCN1S(=O)(=O)c1ccc(F)cc1 (stereo not given),inactive: -8%,–
Cc1ccc(-c2n[nH]c3c2CCC3)cc1,inactive: -8.94%,–
CCOc1ccc(C(=O)Nc2ccc(NC(=O)c3ccccc3)cc2)cc1Br,–,"inconclusive: 16.5 µM [inhibitor, single point]"
CCN(Cc1ccccc1)S(=O)(=O)c1ccc(C(=O)N(CCCN(C)C)c2nc3cc4c(cc3s2)OCO4)cc1,–,"inconclusive: 13.1 µM [inhibitor, single point]"
O=C(CN1CCN(Cc2ccc(F)cc2)CC1)NCc1ccccc1,inactive: -9.76%,–
CC(C)Cn1c([N+](=O)[O-])nc2c1c(=O)[nH]c(=O)n2C,–,"inconclusive: 11.7 µM [inhibitor, single point]"
O=C(C1CC1)N1CCc2cc(S(=O)(=O)NCCC3=CCCCC3)ccc21,–,"inconclusive: 0.0033 µM [inhibitor, full curve, poor fit]"
COc1ccc(S(=O)(=O)N2CC(O)CC2C(=O)OCC(=O)Nc2ccc(Cl)cn2)cc1 (stereo not given),–,active: 1.47 µM
Cc1ccc(/C=N/NC(=O)c2nnn(-c3nonc3N)c2-c2ccc3c(c2)OCO3)s1,–,"inconclusive: 0.0415 µM [inhibitor, full curve, poor fit]"
COc1cccc(CNC(=O)CCC2CCCN(C(=O)c3ccc(F)c(Cl)c3)C2)c1 (stereo not given),–,"inconclusive: 18.5 µM [inhibitor, single point]"
CN(CC(=O)Nc1ccc(Cl)c(C(F)(F)F)c1)C(=O)c1cccs1,–,"inconclusive: 18.5 µM [inhibitor, single point]"
CCOC(=O)CCCSc1nnc(CCCCCN2C(=O)c3cccc4cccc(c34)C2=O)o1,–,active: 1.85 µM
C[N+]12CCC(CC1)C(OC(=O)C(O)(c1ccccc1)c1ccccc1)C2 (stereo not given),–,"inconclusive: 14.7 µM [inhibitor, partial curve, poor fit]"
COc1ccc(-n2c(SCc3ccc(C#N)cc3)nnc2-c2ccccn2)cc1,–,"inconclusive: 11.7 µM [inhibitor, partial curve]"
O=C(Nc1ccccc1Cl)NC1CCCCCCC1,–,"inconclusive: 18.5 µM [inhibitor, single point]"

SMILES,"activity change, negative = inhibition",Potency
Nc1c(C(=O)NCCN2CCOCC2)c2nc3ccccc3nc2n1Cc1ccccc1,–,"inconclusive: 4.15 µM [inhibitor, partial curve]"
NNC(=O)CNc1cccc(Cl)c1,–,"inconclusive: 3.29 µM [inhibitor, partial curve, poor fit]"
COc1ccc(NC(=O)COC(=O)c2cnccn2)cc1Cl,inactive: -13.7%,–
COc1ccc(CN(Cc2cccnc2)C(=S)NCCc2ccccc2)cc1OC,–,active: 14.7 µM
O=C(Nc1cccc2ccccc12)c1ccc(OC(=S)N2CCOCC2)cc1,inactive: 56%,–
O=C(/C=C/c1ccc2c(c1)OCCO2)c1ccc(O)cc1,inactive: 144%,–
Cc1cccc(N(CC(=O)NC2CC2)S(=O)(=O)c2ccc(Cl)cc2)c1,–,"inconclusive: 11.7 µM [inhibitor, single point]"
CN(C)CCCN(Cc1cc2cc3c(cc2[nH]c1=O)OCO3)C(=S)NCc1ccco1,inactive: 23.9%,–
Cc1cc(C)cc(NS(=O)(=O)c2ccc3[nH]c(=O)ccc3c2)c1,–,"inconclusive: 3.7 µM [inhibitor, partial curve, poor fit]"
CCn1c(SCc2nnc(-c3ccccc3)o2)nc2c1c(=O)n(C)c(=O)n2C,–,active: 6.57 µM
CCOC(=O)N1CCN(CCC(=O)c2ccc(Br)cc2)CC1,–,"inconclusive: 13.1 µM [inhibitor, single point]"
COc1ccc(C(=O)OCC(=O)Nc2ccccc2)cc1[N+](=O)[O-],inactive: 0%,–
Cc1ccc(S(=O)(=O)N(C)C)cc1NC(=S)NC12CC3CC(CC(C3)C1)C2,–,"inconclusive: 14.7 µM [inhibitor, single point]"
COc1ccc(-c2nc(=S)c3c([nH]2)Oc2ccc(C)cc2C3)cc1O,–,"inconclusive: 2.62 µM [inhibitor, partial curve, poor fit]"
COc1ccc(OCC(O)CN(CCO)CC(O)Cn2ccc3ccccc32)cc1 (stereo not given),inactive: 7.23%,–
COc1cc(C(=O)OCc2cccc(OC)c2OC)ccc1OCC(=O)N1CCOCC1,–,"inconclusive: 18.5 µM [inhibitor, single point]"
c1ccc(COC(CN2CCCCCC2)CN2CCCCCC2)cc1,inactive: -26.7%,–
CC(C)COc1cccc(C(=O)Nc2ccc(CN3CCOCC3)cc2)c1,–,active: 8.28 µM
CC(C)c1ccc(NC(=O)Cn2ncc3ccccc32)cc1,–,"inconclusive: 1.47 µM [inhibitor, full curve]"
O=C(Nc1cccc(S(=O)(=O)N2CCCCCC2)c1)C1CC(=O)N(c2ccc3c(c2)OCCO3)C1 (stereo not given),inactive: -3.58%,–
COc1cc(OC)c(/C=N/NC(N)=S)cc1Br,–,"inconclusive: 18.5 µM [inhibitor, single point]"
COC(=O)Cn1c(=O)c2c(nc3n2CC(C)CN3CCc2ccccc2)n(C)c1=O (stereo not given),–,"inconclusive: 4.65 µM [inhibitor, partial curve]"
